The target in assay [1] is TatC from Pisum sativum (thylakoidal) (Pisum sativum (endogenous in pea thylakoids)). Description: native gel or EMSA.
The target is the same in assay [2]. Description: native gel or EMSA. This is another data set of the same source.
For assay [3] the target is unchanged. As to the kind of experiment: condition: only after additional treatment with DDM, Triton X-114 or heat.
The target is the same in assay [4]. Description: condition: only after treatment with DDM, in complex #4.

These are yes or no findings as the source states them, for the method shown. For some of these results: Binding can be weak; no strength is given.

B1: TatB from Pisum sativum (thylakoidal) (protein, UniProt Q94G16 87-261)
chain: ASLFGVGAPEALVIGVVALLVFGPKGLAEVARNLGKTLREFQPTIREIQDVSREFKSTLEREIGIDDITNPLQSTYSSNVRNTTPTPSATEITNNSQTAVDPNGKVDESKAYSSEEYLKITEEQLKAVAAQQQEQTSSPKEDEIEQQIQPPANETAATVPPPQKPESESSLPSDL
B1: the binding result in assay [1] is “binds”; in assay [2] it was “binds”; in assay [3], “no binding”; in assay [4], “no binding”.

The values above are taken from publication doi:10.1101/2025.01.10.632409.
